Taken from: PubChem BioAssay AID1224830 (NIAID, 2016)
In all, the deposit lists about 18,000 reagents; this is a part drawn at random. Over the whole deposit, about 2,900 (16%) were called active. 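Calls are made per well; low scores hint the gene aids the LPS response, high scores that it dampens it.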 A number with no mark means an inactive call. Repeated entries: four replicate wells of each siRNA pool. Reagent sequences are not shown.

- Assay: 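Genes whose knock-down alters the TNF-alpha reporter response to LPS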 (primary screen)
- Cell system: human THP-1 monocytic leukaemia cells, TNF dual-luciferase reporter clone, PMA-differentiated to macrophage-like cells
- Reagent: siRNA pool against human genes, 50 nM
- Time to read-out: LPS for 4 h, given about 3 days after siRNA transfection
- Conditions: bacterial LPS (TLR4 ligand), 10 ng/ml
- Measurement: 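TNF firefly reporter luminescence divided by renilla, normalised to the plate median, then turned into a robust z-score for each replicate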
- Reading the numbers: TNF reporter robust z-score: higher = stronger TNF reporter response to LPS
- Call rule: 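Each well counts as active if its z-score is over 2.8 or under -1.5; controls are left without a call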

RLIM showed TNF reporter robust z-score -1.66 (active).
For RLIM, the values are TNF reporter robust z-score -1.96 (active).
Silencing of RLIM gave: TNF reporter robust z-score -0.64.
For RLIM, the values are TNF reporter robust z-score 0.32.
For RPL21, the entry reads TNF reporter robust z-score -0.23.
After knock-down of RPL21 the results were TNF reporter robust z-score -0.26.
Against RPL21, the entry reads TNF reporter robust z-score -0.34.
With knock-down of RPL21 the results were TNF reporter robust z-score 0.1.
NPM1 showed TNF reporter robust z-score -1.02.
Silencing of NPM1 came out at: TNF reporter robust z-score -0.25.
Knock-down of NPM1 resulted in: TNF reporter robust z-score -0.57.
NPM1 showed TNF reporter robust z-score -0.61.
Against ATXN7L1 the deposit lists TNF reporter robust z-score -0.28.
ATXN7L1 gave TNF reporter robust z-score -0.18.
Against ATXN7L1, the values are TNF reporter robust z-score -0.98.
ATXN7L1 gave TNF reporter robust z-score 0.55.
With knock-down of OR5AK2, the screen gave TNF reporter robust z-score 0.58.
Against OR5AK2, the entry reads TNF reporter robust z-score 0.75.
Knock-down of OR5AK2 gave: TNF reporter robust z-score -1.06.
For OR5AK2, the values are TNF reporter robust z-score 0.43.
